Data as given in PubChem BioAssay AID686937 (Drosophila RNAi Screening Center, 2013).
The screen tested about 23,000 reagents; below is a random part of those with a known target gene and a result. 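Reduced-secretion tags in replicate 1 do not always agree with the z-scores; no criterion for assigning the tags was given.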 A plus sign joins genes that one reagent is predicted to hit. Not stated in the record: the amount of reagent.

- Screen: 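Knock-downs that reduce output of a secreted reporter enzyme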 (primary screen)
- System: Drosophila S2 cells expressing secreted horseradish peroxidase
- Reagents: long dsRNA against Drosophila genes
- Duration: about 5.5 days (5 days dsRNA, then 12 h reporter induction)
- Challenge: reporter expression induced after 5 days of dsRNA, read 12 h later; inducer not stated
- Measured: 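After 5 days of dsRNA and 12 h of reporter induction, medium peroxidase read by chemiluminescence and scored as per-plate z-score; higher values mean more reporter released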
- Scale: z-score: higher = more reporter secreted into medium

| z-score, replicate 1 | z-score, replicate 2 | phenotype, replicate 1 | target gene | amplicon |
| --- | --- | --- | --- | --- |
| 0.49 | 0.41 | – | Pgant2 (Polypeptide N-Acetylgalactosaminyltransferase 2) | DRSC00587 |
| 0.31 | 0.22 | – | CG13581 | DRSC04216 |
| 0.28 | 0.36 | – | CG32694 | DRSC17844 |
| 0.25 | 0.02 | – | CG32694 | DRSC17855 |
| -1.06 | 0.47 | – | CG32694 | DRSC22670 |
| -0.5 | 0.14 | – | CG31279 | DRSC13158 |
| 0.18 | 0.15 | – | CG14743 | DRSC06479 |
| -2.12 | -2.41 | reduced secretion | sncRNA:430e + His2A:CG33859 + His2A:CG33817 + 37 more | DRSC21264 |
| 0.54 | 0.59 | – | CG16710 | DRSC15136 |
| 0.21 | 0.43 | – | Jon99Fii (Jonah 99Fii) | DRSC15430 |
| 0.12 | 0.34 | – | Cortactin | DRSC16612 |
| 0.24 | 0.35 | – | FAM21 (Family with sequence similarity 21) | DRSC06623 |
| -1.64 | -1.01 | – | CG42850 (retired record) | DRSC00872 |
| 0.34 | 0.18 | – | Ddrgk1 (DDRGK domain containing 1) | DRSC15897 |
| -1.17 | -0.54 | – | ImpE3 (Ecdysone-inducible gene E3) | DRSC16716 |
| 0.22 | 0.12 | – | Trc8 (TRC8 ring finger protein) | DRSC15437 |
| 0.21 | 0.15 | – | Nle (Notchless) | DRSC00763 |
| 0.23 | 0.15 | – | Cht9 (Chitinase 9) | DRSC04079 |
| 0.58 | 0.55 | – | CG15012 | DRSC08465 |
| 0.44 | 0.24 | – | UBL3 (Ubiquitin like 3) | DRSC20298 |
| 0.53 | 0.64 | – | CG31560 | DRSC12136 |
| -0.71 | -0.51 | – | Cul4 (Cullin 4) | DRSC07243 |
| 0.23 | 0.28 | – | Ttc19 (Tetratricopeptide repeat domain 19) | DRSC02474 |
| 0.07 | 0.14 | – | Hex-t1 (Hexokinase testis 1) | DRSC16701 |
| 0.26 | 0.41 | – | htt (huntingtin) | DRSC16970 |
| -0.82 | -0.96 | – | bel (belle) | DRSC16555 |
| 0.19 | 0.26 | – | CG13008 | DRSC19527 |
| -0.03 | 0.19 | – | CG13008 | DRSC19528 |
| 0.4 | 0.19 | – | CG34228 | DRSC05300 |
| 0.2 | 0.18 | – | CG32599 | DRSC19433 |
| 0.09 | -0.12 | – | Appl (beta amyloid protein precursor-like) | DRSC17728 |
| 0.13 | 0.41 | – | CG42269 | DRSC10670 |
| 0.38 | 0.57 | – | CG42269 | DRSC10672 |

3 of these entries in another layout:
z-score, replicate 1	z-score, replicate 2	phenotype, replicate 1	target gene	amplicon
0.49	0.41		Pgant2 (Polypeptide N-Acetylgalactosaminyltransferase 2)	DRSC00587
0.31	0.22		CG13581	DRSC04216
0.28	0.36		CG32694	DRSC17844
